In paper PMC9700808, “Poly ADP-ribosylation of SET8 leads to aberrant H4K20 methylation in mammalian nuclear genome” (Communications Biology, 2021):
These are yes or no findings as the source states them, for the method shown. Binding calls can cover weak binding; strength is not graded here.

Molecular target: GST-PARP1 DNA binding domain (GST-PARP1 DB)
Assay: pull-down; GST-PARP1 fusion fragments on glutathione-Sepharose beads, full-length recombinant SET8 in solution; 1X PBS with 0.1% Triton X-100, 100 µg/ml BSA, 4 °C, 1 h; washes with 1% Triton X-100; western blot with anti-SET8; both purified

binding: binds
B1: full-length recombinant SET8 protein (enzyme, UniProt Q9NQR1 1-393)
chain: MGEGGAAAALVAAAAAAAAAAAAVVAGQRRRRLGRRARCHGPGRAAGGKMSKPCAVEAAAAAVAATAPGPEMVERRGPGRPRTDGENVFTGQSKIYSYMSPNKCSGMRFPLQEENSVTHHEVKCQGKPLAGIYRKREEKRNAGNAVRSAMKSEEQKIKDARKGPLVPFPNQKSEAAEPPKTPPSSCDSTNAAIAKQALKKPIKGKQAPRKKAQGKTQQNRKLTDFYPVRRSSRKSKAELQSEERKRIDELIESGKEEGMKIDLIDGKGRGVIATKQFSRGDFVVEYHGDLIEITDAKKREALYAQDPSTGCYMYYFQYLSKTYCVDATRETNRLGRLINHSKCGNCQTKLHDIDGVPHLILIASRDIAAGEELLYDYGDRSKASIEAHPWLKH
